In article doi:10.1101/2024.12.16.628704:
Results are given in words; binding and its absence hold for the method and conditions named. Binding seen in cells or lysates may run through a third protein. Some results given as binding are weak or reduced against the parent protein; the word gives no strength.

Sequences of proteins named here, by UniProt entry; tags and fusion partners are left off. Residues count along the entry.
UniProt P31994, residues 43-310: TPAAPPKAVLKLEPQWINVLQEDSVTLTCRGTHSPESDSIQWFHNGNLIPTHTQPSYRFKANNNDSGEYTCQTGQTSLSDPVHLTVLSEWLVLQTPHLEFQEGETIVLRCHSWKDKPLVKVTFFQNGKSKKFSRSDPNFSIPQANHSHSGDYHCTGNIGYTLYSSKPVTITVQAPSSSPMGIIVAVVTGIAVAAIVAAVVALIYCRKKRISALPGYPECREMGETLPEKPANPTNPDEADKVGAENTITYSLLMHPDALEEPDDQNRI
UniProt Q9NNX6: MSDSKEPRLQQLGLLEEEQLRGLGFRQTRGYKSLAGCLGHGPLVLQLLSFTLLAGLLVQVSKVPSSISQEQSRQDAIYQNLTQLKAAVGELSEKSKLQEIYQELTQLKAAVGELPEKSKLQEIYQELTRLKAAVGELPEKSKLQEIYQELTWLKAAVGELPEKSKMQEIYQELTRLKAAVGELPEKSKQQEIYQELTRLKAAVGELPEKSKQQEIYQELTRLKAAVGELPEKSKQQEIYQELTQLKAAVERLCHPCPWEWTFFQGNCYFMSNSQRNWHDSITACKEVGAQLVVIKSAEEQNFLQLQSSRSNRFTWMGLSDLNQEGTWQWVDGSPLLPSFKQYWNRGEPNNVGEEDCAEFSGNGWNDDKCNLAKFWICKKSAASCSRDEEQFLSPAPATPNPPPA

Target: FLAG-tagged FcγRIIB (human) (UniProt P31994)
Assay: co-IP

binding: binds
Substance: HA-tagged DC-SIGN (from UniProt Q9NNX6 1-404) (receptor)
